Source: the supplement of paper PMC12819154, “High-throughput peptide-centric local stability assay extends protein–ligand identification to membrane proteins, tissues and bacteria” (Nature Structural & Molecular Biology, 2025)
The list shows a part of the results. Small differences around the control level are noise.

The chains behind the UniProt entries cited, without tags or fusion partners. Where a name states a change or a piece, a line headed by the entry shows the natural chain unless it says otherwise.
UniProt Q8WV99: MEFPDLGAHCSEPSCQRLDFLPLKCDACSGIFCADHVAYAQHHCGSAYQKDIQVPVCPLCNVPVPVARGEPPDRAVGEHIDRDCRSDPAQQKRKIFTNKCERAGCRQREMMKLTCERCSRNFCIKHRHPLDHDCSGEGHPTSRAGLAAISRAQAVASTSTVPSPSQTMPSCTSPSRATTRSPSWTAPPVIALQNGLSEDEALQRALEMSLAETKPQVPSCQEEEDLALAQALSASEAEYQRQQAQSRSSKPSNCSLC
UniProt Q8TAM2: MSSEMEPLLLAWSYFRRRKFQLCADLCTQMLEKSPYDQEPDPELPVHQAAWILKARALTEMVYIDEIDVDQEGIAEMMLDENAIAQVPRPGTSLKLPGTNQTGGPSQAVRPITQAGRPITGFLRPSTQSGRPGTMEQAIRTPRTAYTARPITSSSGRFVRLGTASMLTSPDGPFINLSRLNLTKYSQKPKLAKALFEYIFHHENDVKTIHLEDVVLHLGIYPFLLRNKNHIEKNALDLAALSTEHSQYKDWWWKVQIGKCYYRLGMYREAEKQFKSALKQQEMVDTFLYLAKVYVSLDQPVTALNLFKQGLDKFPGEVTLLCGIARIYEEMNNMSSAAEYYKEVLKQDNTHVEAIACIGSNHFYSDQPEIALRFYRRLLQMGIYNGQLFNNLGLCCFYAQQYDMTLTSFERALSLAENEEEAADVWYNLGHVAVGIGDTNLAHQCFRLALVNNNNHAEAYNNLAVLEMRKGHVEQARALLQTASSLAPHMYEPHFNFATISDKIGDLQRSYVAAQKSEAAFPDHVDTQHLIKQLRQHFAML
UniProt Q8TD16, whole entry: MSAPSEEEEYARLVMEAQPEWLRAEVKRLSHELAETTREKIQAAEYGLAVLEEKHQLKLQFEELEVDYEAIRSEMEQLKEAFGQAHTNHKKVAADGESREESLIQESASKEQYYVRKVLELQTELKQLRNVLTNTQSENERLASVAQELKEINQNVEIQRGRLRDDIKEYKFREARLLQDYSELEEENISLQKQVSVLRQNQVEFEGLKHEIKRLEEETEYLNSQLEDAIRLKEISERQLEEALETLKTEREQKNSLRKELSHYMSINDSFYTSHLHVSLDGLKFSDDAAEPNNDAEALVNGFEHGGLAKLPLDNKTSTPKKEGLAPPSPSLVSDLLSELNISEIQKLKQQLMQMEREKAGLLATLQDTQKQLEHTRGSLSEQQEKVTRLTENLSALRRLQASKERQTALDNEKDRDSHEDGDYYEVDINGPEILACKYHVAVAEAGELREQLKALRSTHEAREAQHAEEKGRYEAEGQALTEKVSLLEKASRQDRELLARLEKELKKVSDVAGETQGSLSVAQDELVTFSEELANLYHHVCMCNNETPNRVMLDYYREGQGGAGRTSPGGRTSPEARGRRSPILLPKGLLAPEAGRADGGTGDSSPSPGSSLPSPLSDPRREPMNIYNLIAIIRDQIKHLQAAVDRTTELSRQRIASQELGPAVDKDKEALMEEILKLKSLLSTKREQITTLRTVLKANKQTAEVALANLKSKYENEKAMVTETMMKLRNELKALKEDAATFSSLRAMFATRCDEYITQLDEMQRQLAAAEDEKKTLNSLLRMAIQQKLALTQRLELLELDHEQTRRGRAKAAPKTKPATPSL
UniProt Q8TF74: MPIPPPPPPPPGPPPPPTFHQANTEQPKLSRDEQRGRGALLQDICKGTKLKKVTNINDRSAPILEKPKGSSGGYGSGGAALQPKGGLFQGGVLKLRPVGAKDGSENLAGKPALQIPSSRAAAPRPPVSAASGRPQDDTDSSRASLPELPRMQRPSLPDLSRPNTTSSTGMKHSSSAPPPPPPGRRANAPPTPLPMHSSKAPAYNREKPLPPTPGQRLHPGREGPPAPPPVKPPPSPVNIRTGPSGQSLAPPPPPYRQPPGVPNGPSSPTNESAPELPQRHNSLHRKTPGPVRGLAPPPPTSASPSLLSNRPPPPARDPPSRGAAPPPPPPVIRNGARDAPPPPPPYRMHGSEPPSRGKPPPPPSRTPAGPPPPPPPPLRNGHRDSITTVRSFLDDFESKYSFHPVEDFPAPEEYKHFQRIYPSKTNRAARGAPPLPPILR
UniProt Q8TAC2: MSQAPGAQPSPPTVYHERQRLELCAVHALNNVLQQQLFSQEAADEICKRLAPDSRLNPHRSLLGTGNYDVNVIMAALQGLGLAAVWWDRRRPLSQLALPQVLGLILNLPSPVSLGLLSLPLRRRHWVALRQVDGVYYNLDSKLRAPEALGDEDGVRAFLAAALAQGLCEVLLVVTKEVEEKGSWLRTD
UniProt Q8TER5, whole entry: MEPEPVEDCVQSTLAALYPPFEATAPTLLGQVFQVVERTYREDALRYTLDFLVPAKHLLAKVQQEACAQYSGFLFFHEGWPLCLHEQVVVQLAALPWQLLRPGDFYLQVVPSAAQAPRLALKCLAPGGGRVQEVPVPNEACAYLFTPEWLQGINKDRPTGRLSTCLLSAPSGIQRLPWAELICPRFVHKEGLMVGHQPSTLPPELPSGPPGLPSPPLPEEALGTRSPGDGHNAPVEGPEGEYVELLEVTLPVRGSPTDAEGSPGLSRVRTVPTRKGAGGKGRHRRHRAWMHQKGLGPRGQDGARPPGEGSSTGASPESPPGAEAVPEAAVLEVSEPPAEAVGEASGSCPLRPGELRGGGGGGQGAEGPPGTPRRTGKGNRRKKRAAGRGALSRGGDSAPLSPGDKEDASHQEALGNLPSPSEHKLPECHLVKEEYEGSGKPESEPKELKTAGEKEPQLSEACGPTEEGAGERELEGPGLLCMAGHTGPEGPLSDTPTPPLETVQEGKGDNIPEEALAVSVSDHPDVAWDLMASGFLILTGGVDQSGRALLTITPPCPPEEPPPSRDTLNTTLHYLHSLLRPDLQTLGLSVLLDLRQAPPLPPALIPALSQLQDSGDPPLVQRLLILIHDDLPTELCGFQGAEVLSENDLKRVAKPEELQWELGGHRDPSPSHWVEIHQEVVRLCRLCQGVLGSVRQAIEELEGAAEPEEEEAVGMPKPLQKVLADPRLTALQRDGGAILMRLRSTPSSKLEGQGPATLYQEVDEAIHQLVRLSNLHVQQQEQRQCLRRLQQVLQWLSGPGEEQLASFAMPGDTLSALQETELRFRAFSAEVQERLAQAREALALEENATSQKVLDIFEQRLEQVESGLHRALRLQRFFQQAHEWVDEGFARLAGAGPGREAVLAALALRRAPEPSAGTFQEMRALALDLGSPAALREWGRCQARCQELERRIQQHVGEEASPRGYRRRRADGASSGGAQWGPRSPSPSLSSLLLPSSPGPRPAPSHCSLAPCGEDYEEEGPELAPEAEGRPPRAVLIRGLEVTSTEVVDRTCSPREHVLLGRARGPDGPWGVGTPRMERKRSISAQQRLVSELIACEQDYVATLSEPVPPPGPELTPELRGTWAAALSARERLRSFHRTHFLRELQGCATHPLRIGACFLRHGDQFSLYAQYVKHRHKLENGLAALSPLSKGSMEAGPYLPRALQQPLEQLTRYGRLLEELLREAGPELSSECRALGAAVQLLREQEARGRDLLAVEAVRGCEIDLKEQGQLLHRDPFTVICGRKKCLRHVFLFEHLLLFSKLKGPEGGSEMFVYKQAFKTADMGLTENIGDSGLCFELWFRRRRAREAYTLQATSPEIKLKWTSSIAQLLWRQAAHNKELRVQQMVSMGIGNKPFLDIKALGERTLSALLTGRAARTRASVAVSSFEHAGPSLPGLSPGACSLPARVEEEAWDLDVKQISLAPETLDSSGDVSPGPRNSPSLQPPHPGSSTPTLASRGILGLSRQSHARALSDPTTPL
UniProt Q8TDB8: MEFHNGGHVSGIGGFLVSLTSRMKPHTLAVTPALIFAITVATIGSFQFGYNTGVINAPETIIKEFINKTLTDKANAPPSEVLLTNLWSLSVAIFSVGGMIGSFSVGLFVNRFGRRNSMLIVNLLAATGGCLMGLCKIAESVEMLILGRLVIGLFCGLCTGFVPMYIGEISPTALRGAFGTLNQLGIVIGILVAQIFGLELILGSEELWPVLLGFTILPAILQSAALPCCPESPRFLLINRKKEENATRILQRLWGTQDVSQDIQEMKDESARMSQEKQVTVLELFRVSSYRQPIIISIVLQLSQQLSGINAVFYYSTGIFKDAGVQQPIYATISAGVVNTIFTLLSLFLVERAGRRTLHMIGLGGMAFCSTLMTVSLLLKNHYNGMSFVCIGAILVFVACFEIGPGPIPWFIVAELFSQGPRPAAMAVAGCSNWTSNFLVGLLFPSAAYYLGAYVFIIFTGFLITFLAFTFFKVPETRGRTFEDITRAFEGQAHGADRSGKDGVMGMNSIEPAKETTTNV
UniProt Q8TD30: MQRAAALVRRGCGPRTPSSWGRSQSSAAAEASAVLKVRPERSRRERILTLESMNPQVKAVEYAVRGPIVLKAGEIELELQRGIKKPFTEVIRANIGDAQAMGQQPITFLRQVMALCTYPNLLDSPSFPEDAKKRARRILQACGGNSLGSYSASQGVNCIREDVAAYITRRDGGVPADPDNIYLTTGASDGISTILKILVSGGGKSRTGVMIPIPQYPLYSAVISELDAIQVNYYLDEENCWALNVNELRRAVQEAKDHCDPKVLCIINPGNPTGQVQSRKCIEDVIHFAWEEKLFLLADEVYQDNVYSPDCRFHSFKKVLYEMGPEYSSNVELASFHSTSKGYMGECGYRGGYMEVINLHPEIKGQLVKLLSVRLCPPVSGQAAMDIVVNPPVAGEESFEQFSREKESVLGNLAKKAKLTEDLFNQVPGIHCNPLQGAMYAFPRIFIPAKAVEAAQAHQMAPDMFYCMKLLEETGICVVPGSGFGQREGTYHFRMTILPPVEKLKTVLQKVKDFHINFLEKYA
UniProt Q8TDN6: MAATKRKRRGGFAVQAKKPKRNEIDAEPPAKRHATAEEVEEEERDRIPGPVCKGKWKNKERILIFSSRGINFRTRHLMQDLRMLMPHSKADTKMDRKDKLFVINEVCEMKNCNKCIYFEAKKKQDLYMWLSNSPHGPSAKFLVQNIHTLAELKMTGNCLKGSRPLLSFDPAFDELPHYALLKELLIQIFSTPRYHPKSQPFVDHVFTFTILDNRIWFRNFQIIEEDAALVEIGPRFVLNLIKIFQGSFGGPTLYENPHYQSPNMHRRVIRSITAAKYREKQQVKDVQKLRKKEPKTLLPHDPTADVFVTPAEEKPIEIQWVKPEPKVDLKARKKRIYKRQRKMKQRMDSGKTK
UniProt Q8WTW4: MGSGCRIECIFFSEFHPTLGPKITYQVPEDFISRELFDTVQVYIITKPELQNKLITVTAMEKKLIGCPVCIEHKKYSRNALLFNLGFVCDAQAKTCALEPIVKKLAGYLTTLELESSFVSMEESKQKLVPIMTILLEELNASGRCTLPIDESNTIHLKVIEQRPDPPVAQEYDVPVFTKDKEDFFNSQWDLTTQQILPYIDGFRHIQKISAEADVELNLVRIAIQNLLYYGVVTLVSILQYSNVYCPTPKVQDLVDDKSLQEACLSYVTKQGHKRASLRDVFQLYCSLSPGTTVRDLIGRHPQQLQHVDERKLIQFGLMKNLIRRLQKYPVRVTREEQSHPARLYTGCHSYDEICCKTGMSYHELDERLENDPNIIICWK
UniProt Q8TEA1: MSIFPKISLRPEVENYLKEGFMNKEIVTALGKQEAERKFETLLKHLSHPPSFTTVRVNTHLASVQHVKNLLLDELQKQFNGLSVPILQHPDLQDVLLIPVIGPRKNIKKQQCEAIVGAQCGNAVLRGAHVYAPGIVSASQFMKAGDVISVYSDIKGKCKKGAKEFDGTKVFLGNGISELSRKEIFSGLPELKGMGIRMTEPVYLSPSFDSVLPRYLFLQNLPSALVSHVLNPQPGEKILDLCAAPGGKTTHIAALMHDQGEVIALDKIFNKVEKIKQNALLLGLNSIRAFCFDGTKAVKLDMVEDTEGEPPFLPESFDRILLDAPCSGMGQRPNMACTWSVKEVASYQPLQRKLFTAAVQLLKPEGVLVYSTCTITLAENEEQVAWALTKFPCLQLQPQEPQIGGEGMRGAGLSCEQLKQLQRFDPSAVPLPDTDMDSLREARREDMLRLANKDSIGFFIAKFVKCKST
UniProt Q8TED0: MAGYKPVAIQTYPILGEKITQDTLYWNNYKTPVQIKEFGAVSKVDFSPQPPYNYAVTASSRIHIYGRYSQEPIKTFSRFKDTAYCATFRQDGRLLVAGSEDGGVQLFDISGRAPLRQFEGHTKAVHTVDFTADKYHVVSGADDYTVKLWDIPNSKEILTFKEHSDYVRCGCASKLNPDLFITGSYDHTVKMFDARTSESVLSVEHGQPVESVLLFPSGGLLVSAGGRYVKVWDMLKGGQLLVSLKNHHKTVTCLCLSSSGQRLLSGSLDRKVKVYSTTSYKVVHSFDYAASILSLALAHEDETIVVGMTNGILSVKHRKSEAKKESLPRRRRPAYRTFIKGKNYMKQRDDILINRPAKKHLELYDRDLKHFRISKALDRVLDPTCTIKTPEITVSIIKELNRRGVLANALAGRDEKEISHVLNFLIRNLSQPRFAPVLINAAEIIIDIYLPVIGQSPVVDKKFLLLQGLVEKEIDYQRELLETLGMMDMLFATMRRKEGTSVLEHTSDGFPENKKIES

compound: Cc1nc(Nc2ncc(C(=O)Nc3c(C)cccc3Cl)s2)cc(N2CCN(CCO)CC2)n1 [dasatinib]; test: log2 fold change of tryptic peptide abundance, ligand vs vehicle (limited proteolysis) (log2 ratio); higher = more trypsin-susceptible (destabilized); conditions: ligand concentration: 5 uM; sample: K562 cleared lysate

Target	log2 fold change
ZFAND2B (peptide sequence: SSKPSNCSLC, peptide start residue: 248) (UniProt Q8WV99)	-0.414
TBC1D15 (peptide sequence: YVVLCESPQDKR, peptide start residue: 180) (UniProt Q8TC07)	-0.301
UniProt Q8TAM2 (peptide sequence: SEAAFPDHVDTQHLIK, peptide start residue: 517)	0.0179
LMBR1 (peptide sequence: DSETAKPSVNGHQK, peptide start residue: 475) (UniProt Q8WVP7)	0.731
OVCA2 (peptide sequence: VLCLAGFR, peptide start residue: 9) (UniProt Q8WZ82)	-0.0448
IFT81 (peptide sequence: AEELQEAK, peptide start residue: 359) (UniProt Q8WYA0)	0.328
CEP192 (peptide sequence: GIVPDLNSECASKDVLVK, peptide start residue: 343) (UniProt Q8TEP8)	0.265
BICD2 (peptide sequence: VLELQTELK, peptide start residue: 118) (UniProt Q8TD16)	-0.251
MICAL1 (peptide sequence: RQSSSPEQQKK, peptide start residue: 958) (UniProt Q8TDZ2)	-0.589
RAB3IL1 (peptide sequence: YIQQGLVR, peptide start residue: 346) (UniProt Q8TBN0)	-0.124
UniProt Q8WVP5 (peptide sequence: SLALQAQKK, peptide start residue: 8)	0.229
TOPBP1 (peptide sequence: GVHIVSEHWLLDCAQECK, peptide start residue: 965) (UniProt Q92547)	-1.11
BAHD1 (peptide sequence: AVYVLDEPEPAIRK, peptide start residue: 601) (UniProt Q8TBE0)	0.332
TSC1 (peptide sequence: SVDWTHFGGSPPSDEIR, peptide start residue: 673) (UniProt Q92574)	0.183
SPIRE2 (peptide sequence: AELDSLGHTDWAR, peptide start residue: 232) (UniProt Q8WWL2)	-0.395
WIPF2 (peptide sequence: YSFHPVEDFPAPEEYK, peptide start residue: 400) (UniProt Q8TF74)	0.104
SLC9A6 (peptide sequence: ELAFGDHELVIR, peptide start residue: 632) (UniProt Q92581)	0.00479
FIG4 (peptide sequence: NSQQPCSRCSDGVIK, peptide start residue: 834) (UniProt Q92562)	-0.209
UniProt Q8TAC2 (peptide sequence: APEALGDEDGVR, peptide start residue: 145)	0.182

Target	log2 fold change
ARHGEF40 (peptide sequence: ALGAAVQLLR, peptide start residue: 1235) (UniProt Q8TER5)	-0.299
CHTF18 (peptide sequence: LWDLVVFGHERPSR, peptide start residue: 310) (UniProt Q8WVB6)	-0.391
UniProt Q8TDB8 (peptide sequence: TFEDITR, peptide start residue: 457)	-0.0853
UniProt Q8TC92 (peptide sequence: WQLDAYR, peptide start residue: 423)	0.558
UniProt Q8TDH9 (peptide sequence: LKEQYAEMEK, peptide start residue: 170)	-0.321
IPO4 (peptide sequence: ILCCLTFLVK, peptide start residue: 267) (UniProt Q8TEX9)	-0.452
GPT2 (peptide sequence: VKDFHINFLEK, peptide start residue: 511) (UniProt Q8TD30)	0.137
ATG4A (peptide sequence: SIGEWFGPNTVAQVLKK, peptide start residue: 141) (UniProt Q8WYN0)	0.873
ZC3H15 (peptide sequence: EDEISLEDLIERER, peptide start residue: 227) (UniProt Q8WU90)	0.173
UniProt Q8TDN6 (peptide sequence: LFVINEVCEMKNCNK, peptide start residue: 100)	0.409
CASKIN2 (peptide sequence: VGLSPDSPAGDR, peptide start residue: 390) (UniProt Q8WXE0)	-0.19
UniProt Q8WX92 (peptide sequence: KLEDLLEK, peptide start residue: 92)	-0.495
UniProt Q8WTW4 (peptide sequence: TGMSYHELDER, peptide start residue: 358)	0.417
SETD7 (peptide sequence: AFQATQQK, peptide start residue: 359) (UniProt Q8WTS6)	-0.0209
C18orf32 (peptide sequence: KAIQESNDTNK, peptide start residue: 39) (UniProt Q8TCD1)	0.61
NSUN6 (peptide sequence: VFLGNGISELSR, peptide start residue: 170) (UniProt Q8TEA1)	0.0948
UTP15 (peptide sequence: TPEITVSIIK, peptide start residue: 389) (UniProt Q8TED0)	0.0992
WDR48 (peptide sequence: FNKIPFYLQPHASSGAK, peptide start residue: 562) (UniProt Q8TAF3)	0.165

Some of the entries above in another layout.
TSC1 (peptide sequence: SVDWTHFGGSPPSDEIR, peptide start residue: 673) (UniProt Q92574)
  log2 fold change: 0.183
SETD7 (peptide sequence: AFQATQQK, peptide start residue: 359) (UniProt Q8WTS6)
  log2 fold change: -0.0209
